These are yes or no findings as the source states them, for the method shown. In cells and extracts the contact can be indirect. Some binding calls cover weakened binding; strength is not graded here. Sequences can lack the tags named with a protein.
How the values were obtained:
[1] = target: GST-SHP-1 (full length, wild-type, human) (human) (UniProt P29350); test: GST pulldown with recombinant proteins
[2] = target: GST-SHP-1 (full length, wild-type, human) (human) (UniProt P29350); test: GST pulldown, ˜3 µg His-GIV-CT and ˜25 µg GST-SHP-1, GIV-CT pAb blot (FIG. 20A)
[3] = target: GST-SHP-1 (full length, wild-type, human) (human) (UniProt P29350); test: GST pulldown, GIV-CT pAb blot (FIG. 20B)

Sequences of proteins named here, by UniProt entry; tags and fusion partners are left off.
UniProt P29350: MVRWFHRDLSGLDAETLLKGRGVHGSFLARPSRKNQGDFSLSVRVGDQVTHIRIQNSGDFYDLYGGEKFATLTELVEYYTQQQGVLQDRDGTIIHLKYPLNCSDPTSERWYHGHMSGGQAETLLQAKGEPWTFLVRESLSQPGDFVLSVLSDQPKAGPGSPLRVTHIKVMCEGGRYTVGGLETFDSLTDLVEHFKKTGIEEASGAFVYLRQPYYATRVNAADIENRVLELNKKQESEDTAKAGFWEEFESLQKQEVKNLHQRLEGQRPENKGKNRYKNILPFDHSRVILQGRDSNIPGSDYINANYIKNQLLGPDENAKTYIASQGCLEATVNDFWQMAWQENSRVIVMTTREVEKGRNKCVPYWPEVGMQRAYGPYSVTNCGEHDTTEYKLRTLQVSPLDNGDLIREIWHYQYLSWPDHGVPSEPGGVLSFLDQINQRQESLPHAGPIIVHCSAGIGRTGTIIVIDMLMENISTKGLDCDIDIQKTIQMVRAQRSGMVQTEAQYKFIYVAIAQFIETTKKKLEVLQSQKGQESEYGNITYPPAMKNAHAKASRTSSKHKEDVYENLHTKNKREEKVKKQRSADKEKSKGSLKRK

Measured: binding

B1: His-GIV-CT (aa 1660-1870), wild-type, not phosphorylated (mock- or sham-treated) (protein, not shown: small tags and cut ends)
chain: SETLESRHHKIKTGSPGSEVVTLQQFLEESNKLTSVQIKSSSQENLLDEVMKSLSVSSDFLGKDKPVSCGLARSVSGKTPGDFYDRRTTKPEFLRPGPRKTEDTYFISSAGKPTPGTQGKIKLVKESSLSRQSKDSNPYATLPRASSVISTAEGTTRRTSIHDFLTKDSRLPISVDSPPAAADSNTTAASNVDKVQESRNSKSRSREQQSS
binds: all assays above

— patent US20140234872A1
